The target in experiment [1] is T1, truncated PIF4Δ53 fused to the GAL4 DNA-binding domain (Arabidopsis) (UniProt Q8W2F3).
T1 sequence: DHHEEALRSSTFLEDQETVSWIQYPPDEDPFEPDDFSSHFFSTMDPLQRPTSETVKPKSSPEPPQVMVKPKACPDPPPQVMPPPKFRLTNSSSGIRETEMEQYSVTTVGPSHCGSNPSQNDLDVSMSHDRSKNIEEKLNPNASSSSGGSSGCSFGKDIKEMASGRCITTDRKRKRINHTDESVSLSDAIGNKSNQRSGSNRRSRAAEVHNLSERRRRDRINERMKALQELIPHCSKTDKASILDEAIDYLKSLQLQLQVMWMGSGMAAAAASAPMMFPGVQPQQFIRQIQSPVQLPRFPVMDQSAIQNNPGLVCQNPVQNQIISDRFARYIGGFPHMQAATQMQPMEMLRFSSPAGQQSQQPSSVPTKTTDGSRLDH
In words: two-hybrid; yeast; DBD fused to TCPs or PIF4Δ53, AD fused to PIF4 or TCPs; selection on SD-Leu-Trp-His with or without 10 mM 3-AT, dilutions of 10- and 100-fold; empty pDEST22 as negative control.

The target of experiment [2] is T2, TEOSINTE BRANCHED 1/CYCLOIDEA/PCF 5 (TCP5), yeast two-hybrid fusion (Arabidopsis) (UniProt Q9FME3).
T2 sequence: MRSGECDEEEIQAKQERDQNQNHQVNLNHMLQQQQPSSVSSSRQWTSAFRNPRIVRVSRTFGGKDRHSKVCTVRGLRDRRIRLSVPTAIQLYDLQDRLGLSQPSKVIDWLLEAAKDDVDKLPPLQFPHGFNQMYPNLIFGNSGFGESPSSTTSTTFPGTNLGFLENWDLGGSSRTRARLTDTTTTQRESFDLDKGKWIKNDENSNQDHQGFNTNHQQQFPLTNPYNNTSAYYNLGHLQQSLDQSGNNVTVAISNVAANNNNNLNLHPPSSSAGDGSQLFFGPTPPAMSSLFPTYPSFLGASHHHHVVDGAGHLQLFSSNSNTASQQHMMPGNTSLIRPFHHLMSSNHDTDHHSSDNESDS
The experiment is described as follows: two-hybrid; yeast two-hybrid of TCP5 with PIF4 homologs (Figure S2I); orientation not stated.

No constants are given. Whether binding was seen depends on the method and setting. Some binding calls cover weakened binding; strength is not graded here. Sequences can lack the tags named with a protein.

B1: TCP13, yeast two-hybrid fusion (protein, UniProt Q9S7W5 1-355)
chain: MNIVSWKDANDEVAGGATTRREREVKEDQEETEVRATSGKTVIKKQPTSISSSSSSWMKSKDPRIVRVSRAFGGKDRHSKVCTLRGLRDRRVRLSVPTAIQLYDLQERLGVDQPSKAVDWLLDAAKEEIDELPPLPISPENFSIFNHHQSFLNLGQRPGQDPTQLGFKINGCVQKSTTTSREENDREKGENDVVYTNNHHVGSYGTYHNLEHHHHHHQHLSLQADYHSHQLHSLVPFPSQILVCPMTTSPTTTTIQSLFPSSSSAGSGTMETLDPRQMVSHFQMPLMGNSSSSSSQNISTLYSLLHGSSSNNGGRDIDNRMSSVQFNRTNSTTTANMSRHLGSERCTSRGSDHHM
Regarding B1, in experiment [1], the binding result was “binds”.

B2: TEOSINTE BRANCHED 1/CYCLOIDEA/PCF 5 (TCP5), yeast two-hybrid fusion (protein, UniProt Q9FME3 1-360)
chain: MRSGECDEEEIQAKQERDQNQNHQVNLNHMLQQQQPSSVSSSRQWTSAFRNPRIVRVSRTFGGKDRHSKVCTVRGLRDRRIRLSVPTAIQLYDLQDRLGLSQPSKVIDWLLEAAKDDVDKLPPLQFPHGFNQMYPNLIFGNSGFGESPSSTTSTTFPGTNLGFLENWDLGGSSRTRARLTDTTTTQRESFDLDKGKWIKNDENSNQDHQGFNTNHQQQFPLTNPYNNTSAYYNLGHLQQSLDQSGNNVTVAISNVAANNNNNLNLHPPSSSAGDGSQLFFGPTPPAMSSLFPTYPSFLGASHHHHVVDGAGHLQLFSSNSNTASQQHMMPGNTSLIRPFHHLMSSNHDTDHHSSDNESDS
With B2, the binding result in experiment [1] is listed as “binds”.

B3: PIF5, yeast two-hybrid fusion (protein, UniProt Q84LH8 1-444)
chain: MEQVFADWNFEDNFHMSTNKRSIRPEDELVELLWRDGQVVLQSQARREPSVQVQTHKQETLRKPNNIFLDNQETVQKPNYAALDDQETVSWIQYPPDDVIDPFESEFSSHFFSSIDHLGGPEKPRTIEETVKHEAQAMAPPKFRSSVITVGPSHCGSNQSTNIHQATTLPVSMSDRSKNVEERLDTSSGGSSGCSYGRNNKETVSGTSVTIDRKRKHVMDADQESVSQSDIGLTSTDDQTMGNKSSQRSGSTRRSRAAEVHNLSERRRRDRINERMKALQELIPHCSRTDKASILDEAIDYLKSLQMQLQVMWMGSGMAAAAAAAASPMMFPGVQSSPYINQMAMQSQMQLSQFPVMNRSAPQNHPGLVCQNPVQLQLQAQNQILSEQLARYMGGIPQMPPAGNQMQTVQQQPADMLGFGSPAGPQSQLSAPATTDSLHMGKIG
As for B3, the binding entry in experiment [2] is reported as “binds”.

B4: TCP17, yeast two-hybrid fusion (protein, UniProt Q9LEZ9 1-242)
chain: MGIKKEDQKSSLSLLTQRWNNPRIVRVSRAFGGKDRHSKVCTVRGLRDRRIRLSVMTAIQVYDLQERLGLSQPSKVIDWLLEVAKNDVDLLPPLQFPPGFHQLNPNLTGLGESFPGVFDLGRTQREALDLEKRKWVNLDHVFDHIDHHNHFSNSIQSNKLYFPTITSSSSSYHYNLGHLQQSLLDQSGNVTVAFSNNYNNNNLNPPAAETMSSLFPTRYPSFLGGGQLQLFSSTSSQPDHIE
Turning to B4, the binding entry in experiment [1] is recorded as “binds”.

B5: PIF1, yeast two-hybrid fusion (protein, UniProt Q8GZM7 1-478)
chain: MHHFVPDFDTDDDYVNNHNSSLNHLPRKSITTMGEDDDLMELLWQNGQVVVQNQRLHTKKPSSSPPKLLPSMDPQQQPSSDQNLFIQEDEMTSWLHYPLRDDDFCSDLLFSAAPTATATATVSQVTAARPPVSSTNESRPPVRNFMNFSRLRGDFNNGRGGESGPLLSKAVVRESTQVSPSATPSAAASESGLTRRTDGTDSSAVAGGGAYNRKGKAVAMTAPAIEITGTSSSVVSKSEIEPEKTNVDDRKRKEREATTTDETESRSEETKQARVSTTSTKRSRAAEVHNLSERKRRDRINERMKALQELIPRCNKSDKASMLDEAIEYMKSLQLQIQMMSMGCGMMPMMYPGMQQYMPHMAMGMGMNQPIPPPSFMPFPNMLAAQRPLPTQTHMAGSGPQYPVHASDPSRVFVPNQQYDPTSGQPQYPAGYTDPYQQFRGLHPTQPPQFQNQATSYPSSSRVSSSKESEDHGNHTTG
Regarding B5, the binding entry in experiment [2] is on record as “binds”.

The values above are taken from paper PMC6548983.
